These results are taken from article PMC8400498.

The exact form of at least one protein or probe is not confirmed. Protein sequences can lack the tags named with them.

The series addresses T1, CmAreA (GATA zinc finger transcription factor) (Cordyceps militaris) (UniProt G3JBM2).
T1 sequence (looked up, limits assumed): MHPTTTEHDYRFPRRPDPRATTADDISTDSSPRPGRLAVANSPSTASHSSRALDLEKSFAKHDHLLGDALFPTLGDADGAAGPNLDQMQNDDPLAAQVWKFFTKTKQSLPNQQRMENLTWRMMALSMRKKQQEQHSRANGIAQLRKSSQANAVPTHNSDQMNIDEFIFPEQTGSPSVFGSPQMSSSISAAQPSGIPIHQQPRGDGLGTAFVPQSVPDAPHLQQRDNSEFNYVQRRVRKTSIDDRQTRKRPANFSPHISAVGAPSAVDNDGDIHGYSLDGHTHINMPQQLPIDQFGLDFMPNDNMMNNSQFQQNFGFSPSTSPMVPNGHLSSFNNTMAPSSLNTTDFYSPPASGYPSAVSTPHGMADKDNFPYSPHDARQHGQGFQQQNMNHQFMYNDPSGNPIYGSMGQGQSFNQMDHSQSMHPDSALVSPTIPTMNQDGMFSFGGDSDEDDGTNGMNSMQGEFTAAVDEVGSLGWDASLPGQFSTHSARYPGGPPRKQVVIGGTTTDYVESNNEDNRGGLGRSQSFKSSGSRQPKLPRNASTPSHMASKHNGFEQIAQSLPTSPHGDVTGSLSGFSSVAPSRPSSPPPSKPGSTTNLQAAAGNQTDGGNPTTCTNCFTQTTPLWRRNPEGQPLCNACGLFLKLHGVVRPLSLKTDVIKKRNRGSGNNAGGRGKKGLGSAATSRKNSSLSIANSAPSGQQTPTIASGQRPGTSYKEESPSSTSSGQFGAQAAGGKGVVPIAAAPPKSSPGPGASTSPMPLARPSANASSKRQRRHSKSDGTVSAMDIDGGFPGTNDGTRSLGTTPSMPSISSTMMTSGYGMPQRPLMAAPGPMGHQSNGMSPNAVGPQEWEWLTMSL
As to the kind of experiment: EMSA. The note with it: Chemiluminescent EMSA Kit (Beyotime), manufacturer's manual, pH and temperature not stated, recombinant protein, protein details: 6xHis. In general terms: Mobility shift assays separate free from complexed probe on a gel.

With “GAGGACAACGATCCTCTCCTTGATACTCACAGGCCTGACTTCAAAC (double strand) [Biotin probe 2 (Cmhyd1 promoter GATA box)]”, the binding result (800 ng CmAreA) was “binds”.

Consider “TTCGCCTTCTCACCATCCCAAGATACTCCCATCAGCCAAGATGCAA (double strand) [Biotin probe 1 (Cmhyd1 promoter GATA box)]”, for which the binding result (CmAreA 400-3000 ng titration, 800 ng in competition assay) is listed as “binds”.
